In article PMC10761432:
No constants are given. Whether binding was seen depends on the method and setting. Binding seen in cells or lysates may run through a third protein. Some entries that bind do so weakly or less than the wild type.

Amino acid sequences for entries named in this document (tags omitted).
UniProt P09651: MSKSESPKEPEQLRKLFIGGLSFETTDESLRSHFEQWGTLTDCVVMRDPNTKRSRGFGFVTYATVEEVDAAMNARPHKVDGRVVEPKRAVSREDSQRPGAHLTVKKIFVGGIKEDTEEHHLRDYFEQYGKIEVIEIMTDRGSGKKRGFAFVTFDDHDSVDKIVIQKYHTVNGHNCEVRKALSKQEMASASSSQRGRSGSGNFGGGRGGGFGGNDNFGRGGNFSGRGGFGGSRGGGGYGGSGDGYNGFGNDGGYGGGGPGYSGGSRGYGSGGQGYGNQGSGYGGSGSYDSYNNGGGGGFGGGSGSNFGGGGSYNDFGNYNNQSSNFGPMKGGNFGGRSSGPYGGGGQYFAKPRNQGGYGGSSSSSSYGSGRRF
UniProt P19474: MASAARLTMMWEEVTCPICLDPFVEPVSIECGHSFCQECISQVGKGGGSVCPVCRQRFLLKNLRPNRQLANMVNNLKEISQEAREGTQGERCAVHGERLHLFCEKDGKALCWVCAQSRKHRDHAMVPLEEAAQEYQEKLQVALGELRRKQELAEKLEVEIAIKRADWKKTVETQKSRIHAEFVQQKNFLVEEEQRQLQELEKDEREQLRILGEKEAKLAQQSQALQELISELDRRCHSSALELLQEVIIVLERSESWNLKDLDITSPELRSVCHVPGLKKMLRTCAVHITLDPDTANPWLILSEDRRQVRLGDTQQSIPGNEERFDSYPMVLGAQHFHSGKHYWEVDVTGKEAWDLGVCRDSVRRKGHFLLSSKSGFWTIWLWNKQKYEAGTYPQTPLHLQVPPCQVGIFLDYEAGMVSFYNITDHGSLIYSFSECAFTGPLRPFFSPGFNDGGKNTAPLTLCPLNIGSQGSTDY

Molecular target: heterogeneous nuclear ribonucleoprotein A1 (hnRNPA1) (human (endogenous in AGS)) (UniProt P09651)
Test: co-IP; Pierce Crosslink Magnetic IP/Co-IP Kit; protein A/G magnetic beads pre-bound to anti-HNRNPA1, anti-Trim21 or IgG antibody, incubated with cell lysates overnight at 4 °C; low-pH elution; western blot; AGS cells, also GC cells with OIP5-AS1 silenced (interaction improved) or overexpressed (interaction reduced)

tripartite motif-containing protein 21 (TRIM21) (from UniProt P19474 1-475)
binding: binds
